Measured values from publication PMC9127371, “Assembly of nuclear dimers of PI3K regulatory subunits is regulated by the Cdc42-activated tyrosine kinase ACK” (The Journal of Biological Chemistry, 2022).
These are yes or no findings as the source states them, for the method shown. For part of these data: Binding seen in cells or lysates may run through a third protein. Some entries that bind do so weakly or less than the wild type. For part of these data: Tags and fused reporters may be left off the sequences shown.

By UniProt entry, the sequences of proteins in these tests, tags left out. Where a name states a change or a piece, a line headed by the entry shows the natural chain unless it says otherwise. Chains listed by the source or under a name are the forms on record and can include a tag or linker. Residues count along the entry.
UniProt O08908: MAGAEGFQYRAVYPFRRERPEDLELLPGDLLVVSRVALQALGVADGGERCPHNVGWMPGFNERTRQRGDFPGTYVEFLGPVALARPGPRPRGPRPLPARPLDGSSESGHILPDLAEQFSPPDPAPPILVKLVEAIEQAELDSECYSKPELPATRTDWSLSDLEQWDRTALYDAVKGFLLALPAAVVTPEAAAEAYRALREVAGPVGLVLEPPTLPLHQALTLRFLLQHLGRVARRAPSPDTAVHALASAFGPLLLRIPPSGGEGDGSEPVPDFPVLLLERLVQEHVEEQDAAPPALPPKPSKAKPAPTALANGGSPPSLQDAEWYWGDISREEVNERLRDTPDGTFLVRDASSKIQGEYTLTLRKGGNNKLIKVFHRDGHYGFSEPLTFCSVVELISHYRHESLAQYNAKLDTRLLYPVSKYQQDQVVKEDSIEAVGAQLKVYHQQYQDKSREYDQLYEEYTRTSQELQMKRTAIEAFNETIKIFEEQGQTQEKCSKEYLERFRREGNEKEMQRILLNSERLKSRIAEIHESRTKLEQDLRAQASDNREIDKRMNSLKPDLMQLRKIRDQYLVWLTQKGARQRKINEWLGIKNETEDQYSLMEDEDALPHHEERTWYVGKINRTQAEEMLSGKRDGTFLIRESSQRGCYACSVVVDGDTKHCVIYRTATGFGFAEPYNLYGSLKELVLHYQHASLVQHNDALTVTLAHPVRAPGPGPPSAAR
UniProt P27986: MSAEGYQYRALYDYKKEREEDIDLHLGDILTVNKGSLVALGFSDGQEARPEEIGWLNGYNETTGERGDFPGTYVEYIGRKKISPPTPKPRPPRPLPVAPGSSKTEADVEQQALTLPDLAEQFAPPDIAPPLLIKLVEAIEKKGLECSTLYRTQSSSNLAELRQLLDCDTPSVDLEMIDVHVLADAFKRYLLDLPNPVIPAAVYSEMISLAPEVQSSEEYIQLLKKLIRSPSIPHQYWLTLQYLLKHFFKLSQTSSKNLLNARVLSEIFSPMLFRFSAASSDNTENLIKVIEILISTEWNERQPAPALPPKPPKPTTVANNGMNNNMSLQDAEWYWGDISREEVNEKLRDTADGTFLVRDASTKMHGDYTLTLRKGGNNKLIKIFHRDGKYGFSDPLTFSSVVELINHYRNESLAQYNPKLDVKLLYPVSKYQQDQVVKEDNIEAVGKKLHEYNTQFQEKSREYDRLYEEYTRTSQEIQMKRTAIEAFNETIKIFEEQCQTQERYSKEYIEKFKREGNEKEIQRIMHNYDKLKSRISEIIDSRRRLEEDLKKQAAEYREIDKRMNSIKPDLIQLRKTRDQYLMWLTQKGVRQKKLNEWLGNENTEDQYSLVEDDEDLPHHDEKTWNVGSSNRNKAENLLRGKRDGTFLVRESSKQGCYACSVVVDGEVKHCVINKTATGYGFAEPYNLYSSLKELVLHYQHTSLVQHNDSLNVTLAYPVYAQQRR
full-length FLAG-tagged p50α (P27986, form named): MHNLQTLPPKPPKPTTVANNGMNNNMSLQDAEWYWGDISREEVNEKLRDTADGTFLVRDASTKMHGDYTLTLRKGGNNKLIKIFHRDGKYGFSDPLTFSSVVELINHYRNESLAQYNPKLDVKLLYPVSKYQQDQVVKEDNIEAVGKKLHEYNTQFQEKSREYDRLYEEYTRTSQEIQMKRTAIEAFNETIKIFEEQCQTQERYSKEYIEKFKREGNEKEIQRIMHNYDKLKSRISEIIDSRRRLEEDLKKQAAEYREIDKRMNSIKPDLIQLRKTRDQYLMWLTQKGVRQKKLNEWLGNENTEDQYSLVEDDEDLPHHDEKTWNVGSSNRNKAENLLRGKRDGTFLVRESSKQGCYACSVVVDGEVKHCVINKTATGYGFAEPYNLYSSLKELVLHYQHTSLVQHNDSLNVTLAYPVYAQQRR
full-length FLAG-tagged p55α (P27986, form named): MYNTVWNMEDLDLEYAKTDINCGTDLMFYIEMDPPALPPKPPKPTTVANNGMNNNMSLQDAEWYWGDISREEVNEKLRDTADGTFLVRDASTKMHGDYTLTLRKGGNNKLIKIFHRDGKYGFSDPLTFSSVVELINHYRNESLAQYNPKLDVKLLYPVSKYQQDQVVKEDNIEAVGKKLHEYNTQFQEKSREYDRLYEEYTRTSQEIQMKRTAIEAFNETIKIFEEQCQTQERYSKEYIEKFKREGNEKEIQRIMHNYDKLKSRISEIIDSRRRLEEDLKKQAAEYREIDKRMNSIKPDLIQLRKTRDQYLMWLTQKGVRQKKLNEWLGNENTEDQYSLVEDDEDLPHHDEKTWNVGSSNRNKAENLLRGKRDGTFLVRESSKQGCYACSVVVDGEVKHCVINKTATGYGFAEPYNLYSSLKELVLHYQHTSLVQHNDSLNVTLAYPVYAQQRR
FLAG-tagged Y307D p50α (P27986, form named): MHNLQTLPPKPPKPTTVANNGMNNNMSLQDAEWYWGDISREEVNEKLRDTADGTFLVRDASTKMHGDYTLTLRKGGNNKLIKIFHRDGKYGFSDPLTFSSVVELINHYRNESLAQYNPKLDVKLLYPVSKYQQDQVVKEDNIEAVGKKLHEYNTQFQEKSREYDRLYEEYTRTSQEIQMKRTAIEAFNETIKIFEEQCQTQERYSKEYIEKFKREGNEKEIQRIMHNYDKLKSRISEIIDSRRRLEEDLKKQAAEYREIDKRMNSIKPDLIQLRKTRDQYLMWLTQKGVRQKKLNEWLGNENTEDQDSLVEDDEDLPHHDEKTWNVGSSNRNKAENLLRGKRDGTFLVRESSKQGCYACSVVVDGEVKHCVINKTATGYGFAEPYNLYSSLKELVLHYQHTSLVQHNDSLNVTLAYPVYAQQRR
UniProt O00459, residues 342-728: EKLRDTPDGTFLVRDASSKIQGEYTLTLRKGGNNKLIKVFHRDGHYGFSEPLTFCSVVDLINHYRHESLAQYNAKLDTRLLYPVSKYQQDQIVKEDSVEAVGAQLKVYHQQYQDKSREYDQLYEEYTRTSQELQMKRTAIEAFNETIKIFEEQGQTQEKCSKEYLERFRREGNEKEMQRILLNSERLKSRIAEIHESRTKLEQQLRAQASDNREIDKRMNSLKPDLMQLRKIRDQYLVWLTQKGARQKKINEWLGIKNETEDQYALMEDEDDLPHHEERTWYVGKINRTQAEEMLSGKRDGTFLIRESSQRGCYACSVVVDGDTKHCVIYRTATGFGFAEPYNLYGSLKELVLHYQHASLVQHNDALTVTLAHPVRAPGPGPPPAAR

Tests used:
[1] = target: T1, ACK (1–489), Gal4 DNA-binding domain fusion (yeast two-hybrid bait) (UniProt Q07912); test: two-hybrid; ACK(1–489) fused to the Gal4 DNA-binding domain, integrated in yeast Y190::ADE2, screened against a pACT2 human brain cDNA library (Gal4 activation domain); β-galactosidase read-out
T1 sequence: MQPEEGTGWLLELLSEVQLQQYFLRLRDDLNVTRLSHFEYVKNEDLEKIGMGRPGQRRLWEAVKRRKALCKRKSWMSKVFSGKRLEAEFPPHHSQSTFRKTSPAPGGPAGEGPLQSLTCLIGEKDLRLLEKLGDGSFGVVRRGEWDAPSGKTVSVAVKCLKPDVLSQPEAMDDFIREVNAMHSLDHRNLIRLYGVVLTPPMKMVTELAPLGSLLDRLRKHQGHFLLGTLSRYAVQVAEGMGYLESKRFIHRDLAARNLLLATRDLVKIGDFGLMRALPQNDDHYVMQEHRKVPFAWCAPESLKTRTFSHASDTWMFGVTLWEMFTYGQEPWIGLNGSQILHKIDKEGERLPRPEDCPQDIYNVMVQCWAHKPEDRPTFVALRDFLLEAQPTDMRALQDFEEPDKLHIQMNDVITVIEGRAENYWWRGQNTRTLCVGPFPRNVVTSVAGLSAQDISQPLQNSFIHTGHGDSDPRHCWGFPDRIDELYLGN

[2] = target: full-length FLAG-tagged p85β (mouse) (UniProt O08908); test: co-IP; HA-ACK co-expressed with FLAG-tagged regulatory subunit in HEK293T; anti-FLAG immunoprecipitation from whole cell lysate (1% Triton X-100, 150 mM NaCl, pH 7.5); blot with anti-ACK
[3] = target: full-length FLAG-tagged p50α (human) (UniProt P27986); test: as above
[4] = target: full-length FLAG-tagged p85α (human) (UniProt P27986); test: as above
[5] = target: full-length FLAG-tagged p55γ (human) (UniProt Q92569); test: as above
[6] = target: full-length FLAG-tagged p55α (human) (UniProt P27986); test: as above
[7] = target: full-length FLAG-tagged p85α (human) (UniProt P27986); test: co-IP; nuclear-enriched fraction of transfected HEK293T cells (for ACK with p85α with or without 8 μM AIM-100); anti-FLAG immunoprecipitation, blot with anti-HA or anti-V5
[8] = target: full-length FLAG-tagged p85α (human) (UniProt P27986); test: co-IP; cytoplasmic fraction of transfected HEK293T cells (for ACK with p85α with or without 8 μM AIM-100); anti-FLAG immunoprecipitation, blot with anti-HA or anti-V5
[9] = target: FLAG-tagged Y307D p50α (human) (UniProt P27986); test: co-IP; FLAG-p50α, FLAG-p85α or FLAG-p50α Y307D co-expressed with V5-p85β in HEK293T; 10% serum, or 0.05% serum for 16 h untreated or with EGF (100 ng/ml, 5 min) or insulin (100 μg/ml, 90 min); anti-FLAG immunoprecipitation from whole cell lysate, blot with anti-V5
[10] = target: full-length FLAG-tagged p50α (human) (UniProt P27986); test: as above
[11] = target: full-length FLAG-tagged p85α (human) (UniProt P27986); test: as above
[12] = target: full-length FLAG-tagged p50α (human) (UniProt P27986); test: co-IP; nuclear-enriched fraction of transfected HEK293T cells (for ACK with p85α with or without 8 μM AIM-100); anti-FLAG immunoprecipitation, blot with anti-HA or anti-V5

Measured: binding

p55γ (120–461), Gal4 activation domain fusion (two-hybrid prey) (from UniProt Q92569 120-461) (domain or fragment)
binds: [1]

p85β (342–728), Gal4 activation domain fusion (two-hybrid prey) (from UniProt O00459 342-728) (domain or fragment)
binds: [1]

full-length HA-ACK (from UniProt Q07912 1-1038) (enzyme)
binds: [2] | [3] | [4] | [5] | [6] | [7]

V5-p85β (from UniProt O08908 1-722)
binds: [8] | [9] | [10] | [11] | [12] | [7]

p85α (479–724), Gal4 activation domain fusion (two-hybrid prey) (from UniProt P27986 479-724) (domain or fragment)
binds: [1]
